The values that follow come from publication PMC3294245.

Protein sequences, listed by entry. Tags and fused reporters are not part of them. Lines headed by an entry give the natural chain unless they say otherwise; changes in a name come on top. Chains listed by the source or under a name are the forms on record and can include a tag or linker.
UniProt P06493: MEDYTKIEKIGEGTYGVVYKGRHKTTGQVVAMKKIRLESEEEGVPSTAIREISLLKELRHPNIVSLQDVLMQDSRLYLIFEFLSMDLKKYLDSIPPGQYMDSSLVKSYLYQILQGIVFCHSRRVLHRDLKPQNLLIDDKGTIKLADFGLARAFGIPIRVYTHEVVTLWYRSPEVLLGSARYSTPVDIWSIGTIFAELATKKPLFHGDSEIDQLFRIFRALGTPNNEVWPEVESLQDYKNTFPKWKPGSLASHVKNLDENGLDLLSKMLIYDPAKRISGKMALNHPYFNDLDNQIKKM
UniProt Q5MJ70: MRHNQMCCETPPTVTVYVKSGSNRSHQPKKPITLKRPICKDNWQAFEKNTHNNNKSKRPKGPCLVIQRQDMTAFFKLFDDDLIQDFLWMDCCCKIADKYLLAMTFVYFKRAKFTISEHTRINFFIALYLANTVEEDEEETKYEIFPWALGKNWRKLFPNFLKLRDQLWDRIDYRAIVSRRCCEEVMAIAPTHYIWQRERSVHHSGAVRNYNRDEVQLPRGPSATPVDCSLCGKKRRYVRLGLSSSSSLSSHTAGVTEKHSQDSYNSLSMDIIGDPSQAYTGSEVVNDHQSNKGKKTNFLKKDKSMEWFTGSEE
Myc-Spy1-TST (Q5MJ70, form named): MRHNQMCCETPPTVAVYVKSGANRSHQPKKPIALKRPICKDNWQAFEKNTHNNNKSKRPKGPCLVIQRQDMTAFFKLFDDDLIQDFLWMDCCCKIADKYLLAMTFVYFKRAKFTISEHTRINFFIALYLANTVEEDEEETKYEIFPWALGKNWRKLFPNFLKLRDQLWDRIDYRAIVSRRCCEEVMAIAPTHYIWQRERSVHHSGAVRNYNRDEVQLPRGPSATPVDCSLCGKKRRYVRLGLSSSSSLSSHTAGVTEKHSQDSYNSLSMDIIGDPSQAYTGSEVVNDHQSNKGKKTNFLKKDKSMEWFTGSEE
Myc-Spy1-TST/D90A (Q5MJ70, form named): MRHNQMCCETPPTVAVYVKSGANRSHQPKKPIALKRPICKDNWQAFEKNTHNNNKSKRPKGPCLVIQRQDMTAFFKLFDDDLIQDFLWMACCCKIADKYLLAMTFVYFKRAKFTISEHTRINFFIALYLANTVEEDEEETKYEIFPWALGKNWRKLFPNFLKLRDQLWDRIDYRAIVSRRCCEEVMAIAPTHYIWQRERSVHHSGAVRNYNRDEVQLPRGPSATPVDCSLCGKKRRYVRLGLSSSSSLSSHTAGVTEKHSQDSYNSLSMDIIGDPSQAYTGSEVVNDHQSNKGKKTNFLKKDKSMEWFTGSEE

Results are given in words; binding and its absence hold for the method and conditions named. Binding seen in cells or lysates may run through a third protein. Some entries that bind do so weakly or less than the wild type.

The assay has as its target HA-Cdk1 (UniProt P06493). Kind of assay: co-IP; 293 cells co-transfected with HA-Cdk1 and Myc-Spy1 constructs; lysed in 0.1% NP-40 lysis buffer; IP for HA (Figure 4A) or for Myc or HA (Figure 5A, cells treated with 70 ng nocodazole for 16 h; IgG IP as negative control), protein A-Sepharose, immunoblot for Myc and HA. (In western blotting, separated proteins are transferred to a membrane and probed.)

Regarding “Myc-Spy1-TST (from UniProt Q5MJ70 1-313)”, the binding entry is on record as “binds”.
Take “Myc-Spy1-TST/D90A (from UniProt Q5MJ70 1-313)”: the binding entry is recorded as “no binding”.
